Primary screen of a compound library

The chains behind the UniProt entries cited, without tags or fusion partners.
UniProt E9BF75, entry or part of it: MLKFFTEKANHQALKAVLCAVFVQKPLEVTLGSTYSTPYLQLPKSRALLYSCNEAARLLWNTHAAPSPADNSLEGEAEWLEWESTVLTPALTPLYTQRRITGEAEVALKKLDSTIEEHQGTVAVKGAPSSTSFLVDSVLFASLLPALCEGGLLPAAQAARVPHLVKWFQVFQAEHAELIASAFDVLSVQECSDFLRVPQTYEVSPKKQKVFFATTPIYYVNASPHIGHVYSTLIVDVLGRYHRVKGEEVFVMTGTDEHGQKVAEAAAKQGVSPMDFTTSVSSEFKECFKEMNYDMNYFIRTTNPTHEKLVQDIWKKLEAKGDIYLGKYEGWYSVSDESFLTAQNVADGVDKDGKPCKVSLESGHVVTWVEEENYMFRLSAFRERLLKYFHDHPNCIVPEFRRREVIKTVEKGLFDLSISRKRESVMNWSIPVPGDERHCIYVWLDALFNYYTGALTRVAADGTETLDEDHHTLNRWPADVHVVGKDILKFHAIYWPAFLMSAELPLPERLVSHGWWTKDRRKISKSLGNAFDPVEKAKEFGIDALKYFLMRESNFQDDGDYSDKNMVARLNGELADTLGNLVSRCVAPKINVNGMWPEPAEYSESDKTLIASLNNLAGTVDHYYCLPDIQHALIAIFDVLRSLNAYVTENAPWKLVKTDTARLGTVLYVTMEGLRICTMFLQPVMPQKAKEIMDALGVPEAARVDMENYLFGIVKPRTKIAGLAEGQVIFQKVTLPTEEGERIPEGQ

Measurements from “University of Dundee, Small-Polar-MMV Screening Library” (2021), ChEMBL document CHEMBL3988442.

LdMetRS: 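Primary screen of methionyl-tRNA synthetase; the read-out is not stated. Target: Methionyl-tRNA synthetase (putative), Leishmania donovani (UniProt E9BF75). The test concentration is not given. Values are per cent inhibition. Of about 68,000 compounds tested this way, about 24 (0.035%) reached 50% or more in at least one test.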
Mtb heat-shock: 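Assay on Mycobacterium tuberculosis, filed only as a heat shock assay from Cornell; the read-out is not stated. The concentration is filed as 10 mM, unlikely as a test dose, so the dose is not known. Direction is inferred from retests: higher values go with stronger inhibition. Of about 69,000 compounds tested this way, about 930 (1.4%) reached 50% or more in at least one test.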

Results are percentages, as filed. How 0% and 100% were set is not recorded. Most values in the screen are low, and negative values occur. The compounds are a random part of those screened. A dash means the value is not listed here; it may have been measured.

SMILES | LdMetRS | Mtb heat-shock
Cc1n[nH]c(C)c1NC(=O)CN1CCn2c(nnc2C(C)C)C1 | 6.944 | -1.191
COc1cccn(CC(=O)N(C)CCCOc2c(C)cccc2C)c1=O | 7.205 | -10.67
CC(=O)N1CCN(CC(N)=O)CC(COc2ccccc2)C1 (centres undefined) | 7.812 | -9.383
[H][C@]12CC[C@]([H])(CN(C(=O)c3ccc(N)nc3)C1)N(Cc1ccccc1)C2 | - | -22.94
COCC(=O)N1CCC(c2noc3nc(C)cc(C(F)(F)F)c23)CC1 | 5.822 | -29.69
CC(C)CCC(=O)NCc1ccc(N2CCCCC2)cc1 | 17.01 | -26.66
COc1ccncc1NC(=O)C1(c2ccccc2)CC1 | 13.61 | -17.4
CC(C)N(C)Cc1cnc2n1CCN(C(=O)c1cccs1)C2 | 6.667 | -3.584
O=C1CCC2(CCCN(C(=O)c3ccc[nH]3)C2)CN1Cc1cccnc1 (centres undefined) | 6.265 | 0.3821
Cc1nn(CCO)c(C)c1CNCc1cccnc1N(C)C | 18.33 | 8.724
CCN1CCN(C(=O)c2ccnc(N(C)C)c2)CC1 | 9.783 | -1.534
CC(=O)N1CCN(C(=O)NCc2cccnc2OC(C)C)CC1 | 14.53 | -20.75
Cc1nnnn1-c1ccc(CC(=O)N2CCOCC(O)C2)cc1 (centres undefined) | 21.04 | -0.1582
O=C(NCCn1cnc(C2CCCC2)cc1=O)NCc1cccs1 | 10.07 | -10.61
Cc1cc(C)n(-c2ccc(C(=O)NCc3cncn3CC(C)C)cc2)n1 | 12.89 | -1.449
Cc1cnn(CC2CCCN2C(=O)Cc2c(C)noc2Cl)c1 (centres undefined) | 1.545 | -5.262
O=C(O)[C@]12CCCN(Cc3ccsc3)C[C@H]1CN(c1ccccn1)C2 | 0 | -
CN(CCc1noc(C2CC2)n1)C(=O)CCc1cc2n(n1)CCCNC2 | 3.896 | -32.22
O=C(NCCCF)N1CCC(n2ccc(C(F)(F)F)n2)CC1 | 16.17 | 6.029
Cc1nc2ccnn2c(C)c1CCC(=O)N1CCN(CCO)CC1 | 10.86 | -8.188
COc1ccccc1C(CNC(=O)NCc1cc[nH]n1)N1CCCC1 (centres undefined) | -1.423 | -25.32
Cc1ccc2c(CC(=O)N(C)CCN(C)C)c(C)[nH]c2c1C | 10.47 | -
COc1ccc(F)cc1-c1ccccc1CC1CNCCNC1=O (centres undefined) | 13.95 | -
CCC(CN1CCCC1)NC(=O)C1(c2cccc(F)c2)CC1.O=C(O)CC(O)(CC(=O)O)C(=O)O (centres undefined) | - | -3.287
[H][C@]1([C@H](O)c2ccc(NC(=O)COC)cc2)COCC(=O)N1CC(C)C | - | -36.35
O=C(c1cc(C2CCCCN2C(=O)C2CCC2)n[nH]1)N1CCOCC1 (centres undefined) | 8.854 | -28.41
c1cncc(COCc2nnc3n2CCN(Cc2cccs2)C3)c1 | 6.667 | -
CN(Cc1cn2ccccc2c1C#N)C1CCCN(c2cccnn2)C1 (centres undefined) | 21.25 | 16.42
NC[C@H]1CC[C@H](C(NC(=O)c2ccccn2)c2ccccn2)CC1 (some centres undefined) | 20.63 | 11.19
Cc1ccnc(N2CCN(Cc3ccccc3)CC(O)C2)c1 (centres undefined) | 12.64 | -0.3013
N#Cc1cccc(CN2C[C@@H](NC(=O)C3CC3)[C@H]3OCCC[C@H]32)c1 | 12.5 | -
CN(Cc1ccccc1)c1ncccc1CNC1CCC1 | 23.46 | -15.59
c1csc(CN2CCOCC3(CCN(C4CCOCC4)C3)C2)n1 (centres undefined) | 18.45 | -
Cc1ccccc1CN1CCN(c2ncnc3c2NC(=O)CN3)CC1 | 18.41 | -11.26
COc1cccc([C@H]2CN(CCCS(=O)(=O)N(C)C)C[C@@H]2N)c1 | -2.507 | 14.26
CCC(C)(C)NC(=O)C1CC(=O)N(CC2CC2)C1 (centres undefined) | 2.857 | 8.953
NC(=O)c1cnc2n1CCN(C(=O)c1ccc(Cn3cccc3)cc1)C2 | 13.16 | 9.561
[H][C@]12CNC[C@@]1(C(=O)N(C)Cc1ccco1)CN(C1CCCC1)C2 | - | 18.04
Cc1ccccc1OC(C(=O)N1CCC2(CC1)CN(C)C(=O)O2)C(C)C (centres undefined) | 10.07 | -6.096
[H][C@@]12OCCN(S(=O)(=O)C3CC3)[C@@]1([H])CC[C@H]2OCC1CC1 | - | -21.1
COCCNC(=O)[C@H]1CN(c2nnc(C)s2)C[C@H]2OCC[C@@H]12 | 8.014 | -
CC(=O)Nc1ccc(C(=O)N(C)Cc2cccc(F)c2)s1 | 17.96 | -23.61
O=C(NCCN1CCNC1=O)c1cc(-c2ccc(O)cc2)n[nH]1 | 7.829 | -5.625

Once more, the final 3:

- COCCNC(=O)[C@H]1CN(c2nnc(C)s2)C[C@H]2OCC[C@@H]12 | LdMetRS: 8.014%
- CC(=O)Nc1ccc(C(=O)N(C)Cc2cccc(F)c2)s1 | LdMetRS: 17.96%; Mtb heat-shock: -23.61%
- O=C(NCCN1CCNC1=O)c1cc(-c2ccc(O)cc2)n[nH]1 | LdMetRS: 7.829%; Mtb heat-shock: -5.625%